Experimental data from PMC3111535.
No constants are given. Whether binding was seen depends on the method and setting. Some binding calls cover weakened binding; strength is not graded here. Sequences can lack the tags named with a protein.

T1: ATMYC1 Col with P189A (Arabidopsis thaliana) (UniProt Q8W2F1)
T1 sequence: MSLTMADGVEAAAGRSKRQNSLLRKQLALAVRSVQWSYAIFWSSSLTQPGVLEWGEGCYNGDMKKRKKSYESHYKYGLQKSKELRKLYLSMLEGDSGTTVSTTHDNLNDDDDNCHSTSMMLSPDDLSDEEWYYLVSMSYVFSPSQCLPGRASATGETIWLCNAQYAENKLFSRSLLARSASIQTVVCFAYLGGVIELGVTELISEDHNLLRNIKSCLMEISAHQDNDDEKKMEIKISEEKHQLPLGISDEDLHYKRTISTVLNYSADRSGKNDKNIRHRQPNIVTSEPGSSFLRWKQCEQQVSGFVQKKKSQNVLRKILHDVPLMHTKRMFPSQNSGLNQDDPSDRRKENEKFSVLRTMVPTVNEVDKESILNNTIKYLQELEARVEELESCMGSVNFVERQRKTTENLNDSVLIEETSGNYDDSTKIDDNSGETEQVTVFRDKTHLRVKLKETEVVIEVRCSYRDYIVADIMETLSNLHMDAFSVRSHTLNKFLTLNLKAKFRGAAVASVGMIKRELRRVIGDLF

T2: ATMYC1 protein encoded by the native Col allele (Arabidopsis thaliana) (UniProt Q8W2F1)
T2 sequence: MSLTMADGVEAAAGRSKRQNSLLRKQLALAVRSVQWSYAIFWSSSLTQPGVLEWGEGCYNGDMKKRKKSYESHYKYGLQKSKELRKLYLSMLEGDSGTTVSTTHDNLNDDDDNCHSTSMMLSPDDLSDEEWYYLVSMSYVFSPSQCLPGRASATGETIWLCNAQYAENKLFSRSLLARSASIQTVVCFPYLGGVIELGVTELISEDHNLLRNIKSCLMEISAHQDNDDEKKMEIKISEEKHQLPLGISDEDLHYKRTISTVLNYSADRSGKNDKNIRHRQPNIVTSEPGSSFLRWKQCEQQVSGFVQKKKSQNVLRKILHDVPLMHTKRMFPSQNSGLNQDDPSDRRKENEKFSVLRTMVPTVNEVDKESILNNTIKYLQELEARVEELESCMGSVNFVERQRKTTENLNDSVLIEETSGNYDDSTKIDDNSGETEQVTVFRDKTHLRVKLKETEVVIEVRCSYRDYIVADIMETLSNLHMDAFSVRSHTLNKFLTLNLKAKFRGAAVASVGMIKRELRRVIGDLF


How the values were obtained:
[1] = target: T1, ATMYC1 Col with P189A (Arabidopsis thaliana); assay: two-hybrid; ATMYC1 in the DNA binding vector pGBT9 RFB, TTG1 or GL1 in activation domain vectors; yeast strain Y190; growth on histidine dropout media and β-galactosidase activity (X-gal, colonies lifted on nitrocellulose)
[2] = target: T2, ATMYC1 protein encoded by the native Col allele (Arabidopsis thaliana); assay: as above

| binding [1] | binding [2] | Binder |
| --- | --- | --- |
| no binding | binds | GL1 (protein, UniProt P27900 1-228) MRIRRRDEKENQEYKKGLWTVEEDNILMDYVLNHGTGQWNRIVRKTGLKRCGKSCRLRWMNYLSPNVNKGNFTEQEEDLIIRLHKLLGNRWSLIAKRVPGRTDNQVKNYWNTHLSKKLVGDYSSAVKTTGEDDDSPPSLFITAATPSSCHHQQENIYENIAKSFNGVVSASYEDKPKQELAQKDVLMATTNDPSHYYGNNALWVHDDDFELSSLVMMNFASGDVEYCL |
| no binding | binds | TTG1 (protein, UniProt Q9XGN1 1-341) MDNSAPDSLSRSETAVTYDSPYPLYAMAFSSLRSSSGHRIAVGSFLEDYNNRIDILSFDSDSMTVKPLPNLSFEHPYPPTKLMFSPPSLRRPSSGDLLASSGDFLRLWEINEDSSTVEPISVLNNSKTSEFCAPLTSFDWNDVEPKRLGTCSIDTTCTIWDIEKSVVETQLIAHDKEVHDIAWGEARVFASVSADGSVRIFDLRDKEHSTIIYESPQPDTPLLRLAWNKQDLRYMATILMDSNKVVILDIRSPTMPVAELERHQASVNAIAWAPQSCKHICSGGDDTQALIWELPTVAGPNGIDPMSVYSAGSEINQLQWSSSQPDWIGIAFANKMQLLRV |
